Changes are numbered by the printed parent chain. Only a part is listed here, and it is no random draw. The calls were merged from several studies; some rest on single wells. Some of the results follow.
Assays:
Conditions in all cases: stereoisomer not certain
[1] = test system: T1, O2T11
T1 sequence (whole entry): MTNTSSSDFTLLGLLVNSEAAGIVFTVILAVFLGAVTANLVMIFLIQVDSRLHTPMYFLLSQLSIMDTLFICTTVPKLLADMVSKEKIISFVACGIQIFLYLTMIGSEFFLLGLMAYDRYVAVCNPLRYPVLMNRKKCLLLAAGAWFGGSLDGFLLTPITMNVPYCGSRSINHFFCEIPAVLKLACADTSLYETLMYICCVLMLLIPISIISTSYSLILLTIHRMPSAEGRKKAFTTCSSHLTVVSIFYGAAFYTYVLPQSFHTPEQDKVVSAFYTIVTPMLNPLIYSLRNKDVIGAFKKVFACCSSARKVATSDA
In short: (§1)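 Assay methods differ from source to source, frequently being transient luciferase assays in mammalian cell lines. For each receptor–molecule pair, the label responsive (active) applies when the original authors judged the measured signal statistically different from baseline, and non-responsive (inactive) applies otherwise.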

Chains of the proteins cited; added tags and fusions are not shown. A line that says so, or that is headed by a name, gives the form on record, which may keep a tag or linker.
O4A15, as listed by the source: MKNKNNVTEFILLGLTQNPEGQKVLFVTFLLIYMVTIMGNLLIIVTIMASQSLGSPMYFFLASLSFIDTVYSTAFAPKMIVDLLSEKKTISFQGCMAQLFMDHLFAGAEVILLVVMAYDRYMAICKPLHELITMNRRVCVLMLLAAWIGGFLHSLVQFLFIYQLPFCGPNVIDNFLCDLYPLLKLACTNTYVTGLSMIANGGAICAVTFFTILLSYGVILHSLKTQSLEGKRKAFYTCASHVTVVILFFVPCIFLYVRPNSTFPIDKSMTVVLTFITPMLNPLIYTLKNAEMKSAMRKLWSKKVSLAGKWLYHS
O4F17, as listed by the source: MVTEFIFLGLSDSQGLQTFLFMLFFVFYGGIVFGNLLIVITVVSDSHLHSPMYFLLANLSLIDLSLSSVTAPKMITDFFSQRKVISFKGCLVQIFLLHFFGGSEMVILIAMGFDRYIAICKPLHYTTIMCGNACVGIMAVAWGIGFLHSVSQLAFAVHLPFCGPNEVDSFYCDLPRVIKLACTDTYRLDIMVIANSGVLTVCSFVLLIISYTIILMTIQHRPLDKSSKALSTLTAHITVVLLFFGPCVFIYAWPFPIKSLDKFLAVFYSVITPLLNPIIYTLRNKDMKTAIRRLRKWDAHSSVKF
O4C46, as listed by the source: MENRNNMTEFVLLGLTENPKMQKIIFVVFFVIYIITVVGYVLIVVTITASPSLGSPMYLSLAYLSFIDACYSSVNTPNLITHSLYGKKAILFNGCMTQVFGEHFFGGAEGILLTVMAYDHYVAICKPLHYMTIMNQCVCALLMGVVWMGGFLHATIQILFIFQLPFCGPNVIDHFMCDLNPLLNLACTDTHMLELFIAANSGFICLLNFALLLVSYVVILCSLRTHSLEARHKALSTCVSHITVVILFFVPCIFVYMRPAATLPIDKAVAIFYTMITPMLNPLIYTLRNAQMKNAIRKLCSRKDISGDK

[2] = test system: T2, O2T29
T2 sequence (whole entry): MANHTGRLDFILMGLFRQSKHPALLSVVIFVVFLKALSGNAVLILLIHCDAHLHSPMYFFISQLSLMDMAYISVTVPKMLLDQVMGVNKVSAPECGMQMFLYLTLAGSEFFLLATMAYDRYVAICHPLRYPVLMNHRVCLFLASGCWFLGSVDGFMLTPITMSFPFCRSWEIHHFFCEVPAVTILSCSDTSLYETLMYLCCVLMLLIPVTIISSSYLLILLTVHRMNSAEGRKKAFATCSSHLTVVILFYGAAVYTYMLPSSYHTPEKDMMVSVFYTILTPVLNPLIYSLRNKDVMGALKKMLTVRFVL
In short: as §1

[3] = test system: T3, O2T29; remark: listed apart in the source
T3 sequence (whole entry): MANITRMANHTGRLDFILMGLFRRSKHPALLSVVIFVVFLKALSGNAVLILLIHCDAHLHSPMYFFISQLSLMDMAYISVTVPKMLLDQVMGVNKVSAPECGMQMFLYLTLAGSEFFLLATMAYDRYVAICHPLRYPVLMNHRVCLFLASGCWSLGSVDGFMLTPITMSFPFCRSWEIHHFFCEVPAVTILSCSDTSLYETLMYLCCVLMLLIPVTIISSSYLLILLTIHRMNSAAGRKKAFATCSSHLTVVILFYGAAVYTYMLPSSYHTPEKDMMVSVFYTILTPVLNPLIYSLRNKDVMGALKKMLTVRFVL
In short: as §1

[4] = test system: T4, O2T33
T4 sequence (whole entry): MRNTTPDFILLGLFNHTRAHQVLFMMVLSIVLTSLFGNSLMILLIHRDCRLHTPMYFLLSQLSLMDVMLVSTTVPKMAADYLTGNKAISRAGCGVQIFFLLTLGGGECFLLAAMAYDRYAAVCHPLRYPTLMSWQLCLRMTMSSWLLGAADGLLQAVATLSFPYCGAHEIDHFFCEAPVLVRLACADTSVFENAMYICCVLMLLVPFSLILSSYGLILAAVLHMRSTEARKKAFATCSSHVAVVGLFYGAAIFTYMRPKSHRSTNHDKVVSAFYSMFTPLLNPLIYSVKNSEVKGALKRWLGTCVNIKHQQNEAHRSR
In short: as §1

[5] = test system: T5, O2T34
T5 sequence (whole entry): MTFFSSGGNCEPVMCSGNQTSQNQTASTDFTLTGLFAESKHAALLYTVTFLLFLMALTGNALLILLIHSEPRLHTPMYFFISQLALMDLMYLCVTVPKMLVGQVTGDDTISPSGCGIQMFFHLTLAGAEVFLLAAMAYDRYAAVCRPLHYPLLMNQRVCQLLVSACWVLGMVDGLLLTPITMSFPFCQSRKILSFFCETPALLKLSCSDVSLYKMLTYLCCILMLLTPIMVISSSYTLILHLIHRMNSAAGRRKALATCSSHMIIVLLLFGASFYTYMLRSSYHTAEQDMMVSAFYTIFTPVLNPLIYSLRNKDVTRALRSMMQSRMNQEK
In short: as §1

[6] = test system: T6, O2T35
T6 sequence (whole entry): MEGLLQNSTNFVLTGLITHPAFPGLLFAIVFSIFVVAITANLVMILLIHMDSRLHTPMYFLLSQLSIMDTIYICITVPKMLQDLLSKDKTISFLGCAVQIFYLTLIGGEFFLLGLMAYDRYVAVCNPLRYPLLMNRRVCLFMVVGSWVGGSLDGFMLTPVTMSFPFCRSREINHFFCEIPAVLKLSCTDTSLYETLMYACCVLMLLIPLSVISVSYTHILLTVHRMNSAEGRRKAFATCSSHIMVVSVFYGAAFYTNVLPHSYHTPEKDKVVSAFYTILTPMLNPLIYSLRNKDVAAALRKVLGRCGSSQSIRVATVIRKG
In short: as §1

[7] = test system: O4A15
In short: as §1

[8] = test system: T7, O4A47
T7 sequence (whole entry): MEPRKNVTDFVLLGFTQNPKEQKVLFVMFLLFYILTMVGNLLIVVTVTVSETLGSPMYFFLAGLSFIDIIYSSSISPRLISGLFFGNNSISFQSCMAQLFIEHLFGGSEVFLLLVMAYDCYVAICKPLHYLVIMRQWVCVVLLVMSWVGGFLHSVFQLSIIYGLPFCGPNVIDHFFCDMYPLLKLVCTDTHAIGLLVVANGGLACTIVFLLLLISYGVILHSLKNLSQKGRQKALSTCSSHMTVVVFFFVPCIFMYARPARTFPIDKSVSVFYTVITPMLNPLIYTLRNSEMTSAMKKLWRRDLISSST
In short: as §1

[9] = test system: O4C46
In short: as §1

[10] = test system: T8, O4F17
T8 sequence (whole entry): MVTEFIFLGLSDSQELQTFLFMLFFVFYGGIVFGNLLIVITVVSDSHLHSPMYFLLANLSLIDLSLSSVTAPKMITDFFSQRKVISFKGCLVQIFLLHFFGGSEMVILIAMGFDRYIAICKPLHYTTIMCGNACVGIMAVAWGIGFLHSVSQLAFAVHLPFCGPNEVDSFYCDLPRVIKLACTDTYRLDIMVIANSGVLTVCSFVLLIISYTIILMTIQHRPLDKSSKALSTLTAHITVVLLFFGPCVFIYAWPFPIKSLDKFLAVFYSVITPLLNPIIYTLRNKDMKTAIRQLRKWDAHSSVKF
In short: as §1

[11] = test system: T9, O4F17; remark: listed apart in the source
T9 sequence (whole entry): T8 sequence (whole entry) with E15G, Q293R
In short: as §1

[12] = test system: T10, O4F21
T10 sequence (whole entry): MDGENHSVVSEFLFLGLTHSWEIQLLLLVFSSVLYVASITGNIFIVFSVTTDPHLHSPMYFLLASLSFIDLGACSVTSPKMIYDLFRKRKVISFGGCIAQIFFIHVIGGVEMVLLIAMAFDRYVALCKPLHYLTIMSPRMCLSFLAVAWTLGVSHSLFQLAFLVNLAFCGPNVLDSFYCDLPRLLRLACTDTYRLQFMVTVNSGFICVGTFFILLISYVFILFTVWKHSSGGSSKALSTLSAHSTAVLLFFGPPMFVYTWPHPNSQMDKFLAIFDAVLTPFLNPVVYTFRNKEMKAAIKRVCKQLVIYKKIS
In short: as §1

[13] = test system: T11, O51A4
T11 sequence (whole entry): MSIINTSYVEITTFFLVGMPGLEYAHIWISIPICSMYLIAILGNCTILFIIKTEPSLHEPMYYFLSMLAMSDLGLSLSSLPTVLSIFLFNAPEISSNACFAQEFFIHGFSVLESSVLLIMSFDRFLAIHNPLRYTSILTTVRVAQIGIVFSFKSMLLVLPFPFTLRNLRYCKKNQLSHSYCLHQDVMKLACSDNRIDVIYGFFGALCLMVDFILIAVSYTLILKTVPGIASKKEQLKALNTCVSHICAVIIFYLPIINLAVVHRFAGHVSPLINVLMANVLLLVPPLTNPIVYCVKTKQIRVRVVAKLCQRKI
In short: as §1

[14] = test system: T12, O51B4
T12 sequence (whole entry): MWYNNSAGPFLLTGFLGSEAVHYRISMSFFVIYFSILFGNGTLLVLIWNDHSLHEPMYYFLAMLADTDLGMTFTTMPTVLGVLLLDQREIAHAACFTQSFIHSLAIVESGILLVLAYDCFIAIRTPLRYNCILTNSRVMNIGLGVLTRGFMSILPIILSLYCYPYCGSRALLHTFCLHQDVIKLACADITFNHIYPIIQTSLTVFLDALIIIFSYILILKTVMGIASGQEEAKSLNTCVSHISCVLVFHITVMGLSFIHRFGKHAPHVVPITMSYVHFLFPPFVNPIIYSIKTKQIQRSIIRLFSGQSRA
In short: as §1

[15] = test system: T13, O51B5
T13 sequence (whole entry): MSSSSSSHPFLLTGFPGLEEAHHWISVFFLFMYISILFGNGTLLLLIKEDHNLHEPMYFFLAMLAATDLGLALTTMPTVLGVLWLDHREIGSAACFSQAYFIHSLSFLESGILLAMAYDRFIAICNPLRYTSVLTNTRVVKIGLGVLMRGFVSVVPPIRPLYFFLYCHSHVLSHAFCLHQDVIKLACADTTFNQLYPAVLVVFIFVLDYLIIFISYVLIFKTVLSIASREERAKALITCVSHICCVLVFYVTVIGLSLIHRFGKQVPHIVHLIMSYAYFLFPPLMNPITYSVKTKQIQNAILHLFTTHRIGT
In short: as §1

[16] = test system: T14, O51B6
T14 sequence (whole entry): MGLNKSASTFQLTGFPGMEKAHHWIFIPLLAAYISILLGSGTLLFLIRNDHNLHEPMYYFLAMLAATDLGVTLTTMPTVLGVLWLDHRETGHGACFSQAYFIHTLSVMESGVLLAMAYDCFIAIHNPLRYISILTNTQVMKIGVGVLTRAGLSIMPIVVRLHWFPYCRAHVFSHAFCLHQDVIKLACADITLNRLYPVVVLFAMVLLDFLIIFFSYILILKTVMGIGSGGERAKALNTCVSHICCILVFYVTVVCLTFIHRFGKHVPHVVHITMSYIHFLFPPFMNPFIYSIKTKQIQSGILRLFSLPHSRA
In short: as §1

[17] = test system: T15, O51E1
T15 sequence (whole entry): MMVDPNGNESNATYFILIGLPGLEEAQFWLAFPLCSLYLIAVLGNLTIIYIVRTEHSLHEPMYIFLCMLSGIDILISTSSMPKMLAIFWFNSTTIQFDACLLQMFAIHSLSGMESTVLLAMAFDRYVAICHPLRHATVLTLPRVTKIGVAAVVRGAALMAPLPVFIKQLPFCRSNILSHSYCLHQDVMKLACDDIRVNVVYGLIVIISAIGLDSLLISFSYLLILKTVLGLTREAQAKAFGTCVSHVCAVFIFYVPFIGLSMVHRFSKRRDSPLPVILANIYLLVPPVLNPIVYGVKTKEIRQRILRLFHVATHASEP
In short: as §1

[18] = test system: T16, O51F1
T16 sequence (whole entry): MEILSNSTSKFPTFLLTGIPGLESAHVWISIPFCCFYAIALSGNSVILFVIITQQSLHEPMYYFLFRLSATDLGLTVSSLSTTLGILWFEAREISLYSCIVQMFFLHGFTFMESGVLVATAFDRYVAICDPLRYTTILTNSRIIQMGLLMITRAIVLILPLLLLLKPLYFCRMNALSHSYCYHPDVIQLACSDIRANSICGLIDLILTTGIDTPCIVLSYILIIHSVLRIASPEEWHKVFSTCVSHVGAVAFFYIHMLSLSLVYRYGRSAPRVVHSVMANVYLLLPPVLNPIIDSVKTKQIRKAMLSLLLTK
In short: as §1

[19] = test system: T17, O51F2
T17 sequence (whole entry): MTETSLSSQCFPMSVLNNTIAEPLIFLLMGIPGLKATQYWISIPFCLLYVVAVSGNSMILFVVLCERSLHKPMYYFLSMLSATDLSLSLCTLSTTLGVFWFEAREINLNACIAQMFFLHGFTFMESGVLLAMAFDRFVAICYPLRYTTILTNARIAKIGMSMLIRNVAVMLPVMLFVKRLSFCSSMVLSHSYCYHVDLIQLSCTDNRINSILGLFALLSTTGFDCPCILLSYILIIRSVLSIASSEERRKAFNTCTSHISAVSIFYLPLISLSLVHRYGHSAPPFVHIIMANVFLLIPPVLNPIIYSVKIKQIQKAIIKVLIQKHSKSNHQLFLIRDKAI
In short: as §1

Measured: odorant receptor agonist call

CCCCCCCCCC=O
inactive: [1] | [2] | [3] | [4] | [5] | [6] | [7] | [8] | [9] | [10] | [11] | [12] | [13] | [14] | [15] | [16] | [17] | [18] | [19]

CC12C=CCC1C1CCC3CC(=O)CCC3(C)C1CC2 (configuration not stated)
active: [7] | [10] | [13] | [16]
inactive: [1] | [2] | [3] | [4] | [5] | [6] | [8] | [9] | [11] | [12] | [14] | [15] | [17] | [18] | [19]

CC(=O)OC(C)(C)C1CC=C(C)CC1 (configuration not stated)
active: [11] | [16]
inactive: [1] | [2] | [3] | [4] | [5] | [6] | [7] | [8] | [9] | [10] | [12] | [13] | [14] | [15] | [17] | [18] | [19]
